PubChem BioAssay AID1259405 | NCATS | 2018
Assay: 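Silenced genes that increase secreted GFP made by CHO cells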 (primary screen). Cell system: Chinese hamster CHO-K1 ovary cells with stable secreted eGFP expression. Reagent: single siRNA against mouse genes, 0.8 pmol siRNA per well (2 µl of 400 nM stock). Duration: 3 days. Detection: 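Per-well intracellular GFP measured by laser scanning cytometry, plus viability from ATP luminescence, each relative to plate median of non-targeting control wells, in %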. Reading the numbers: GFP, % of control: higher = more GFP per well, higher productivity; viability (ATP), % of control: higher = more viable cells (more ATP). Rule for the call: 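Called active when intracellular GFP, relative to negative control, is at or above 120%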.
Here is a random part of about 50,000 deposited reagents. In the full data, about 4,000 (8%) are marked active. 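Mouse siRNA library applied to hamster cells; one well for each siRNA.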 A number with no mark means an inactive call. The numbers tell different reagents against one gene apart. No sequences are given here.

Hdac1 (histone deacetylase 1) #1 gave GFP, % of control 63.7; viability (ATP), % of control 78.3.
Silencing of Hdac1 (histone deacetylase 1) #2 resulted in: GFP, % of control 92.3; viability (ATP), % of control 78.9.
Knock-down of 1700067P10Rik (RIKEN cDNA 1700067P10 gene) #1 resulted in: GFP, % of control 81.1; viability (ATP), % of control 89.1.
For 1700067P10Rik (RIKEN cDNA 1700067P10 gene) #2, the values are GFP, % of control 72.6; viability (ATP), % of control 95.
1700067P10Rik (RIKEN cDNA 1700067P10 gene) #3 showed GFP, % of control 50.3; viability (ATP), % of control 43.1.
After knock-down of Litaf (LPS-induced TN factor) #1, the screen gave GFP, % of control 73.1; viability (ATP), % of control 66.
Litaf (LPS-induced TN factor) #2 gave GFP, % of control 73.6; viability (ATP), % of control 97.3.
With knock-down of Litaf (LPS-induced TN factor) #3, the record shows GFP, % of control 101; viability (ATP), % of control 42.9.
After knock-down of Fbxw8 (F-box and WD-40 domain protein 8) #1, the record shows GFP, % of control 41.6; viability (ATP), % of control 70.7.
Against Fbxw8 (F-box and WD-40 domain protein 8) #2 the deposit lists GFP, % of control 37.5; viability (ATP), % of control 52.
Fbxw8 (F-box and WD-40 domain protein 8) #3 scored GFP, % of control 82.1; viability (ATP), % of control 45.1.
Ski (ski proto-oncogene) #1 gave GFP, % of control 64; viability (ATP), % of control 72.2.
Ski (ski proto-oncogene) #2 scored GFP, % of control 98; viability (ATP), % of control 99.3.
Ski (ski proto-oncogene) #3 scored GFP, % of control 87.5; viability (ATP), % of control 120.
After knock-down of Klf15 (Kruppel-like transcription factor 15) #1, the screen gave GFP, % of control 82.8; viability (ATP), % of control 74.6.
With knock-down of Klf15 (Kruppel-like transcription factor 15) #2 the results were GFP, % of control 69.2; viability (ATP), % of control 25.7.
Klf15 (Kruppel-like transcription factor 15) #3 gave GFP, % of control 37.4; viability (ATP), % of control 62.3.

2 entries from above in another layout:
Gene,siRNA no.,"GFP, % of control","viability (ATP), % of control"
Fbxw8 (F-box and WD-40 domain protein 8),3,82.1,45.1
Ski (ski proto-oncogene),1,64,72.2
